Residue numbers refer to the chain shown, from its start. These are yes or no findings as the source states them, for the method shown. For some assays here: Binding seen in cells or lysates may run through a third protein. Some entries that bind do so weakly or less than the wild type. Where a sequence is shown, tags or fusion partners need not be part of it.
Tests used:
[1] = target: T1, mouse ADAT3 A180V, His-tagged (mouse) (UniProt Q6PAT0); assay: pull-down; untagged ADAT2 co-expressed in E. coli with His-tagged ADAT3 (WT or mutant); His-tag affinity purification of the soluble fraction, SDS-PAGE
T1 sequence: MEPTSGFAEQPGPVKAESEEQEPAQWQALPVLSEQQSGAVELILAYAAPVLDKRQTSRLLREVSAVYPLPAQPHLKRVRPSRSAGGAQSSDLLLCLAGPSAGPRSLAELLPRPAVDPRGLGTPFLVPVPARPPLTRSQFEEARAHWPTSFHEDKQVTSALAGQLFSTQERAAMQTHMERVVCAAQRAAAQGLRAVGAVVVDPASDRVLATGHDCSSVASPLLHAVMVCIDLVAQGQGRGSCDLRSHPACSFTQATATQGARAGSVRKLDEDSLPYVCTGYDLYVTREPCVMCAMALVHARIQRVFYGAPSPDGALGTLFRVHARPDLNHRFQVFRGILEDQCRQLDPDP

By UniProt entry, the sequences of proteins in these tests, tags left out.
UniProt Q6P6J0: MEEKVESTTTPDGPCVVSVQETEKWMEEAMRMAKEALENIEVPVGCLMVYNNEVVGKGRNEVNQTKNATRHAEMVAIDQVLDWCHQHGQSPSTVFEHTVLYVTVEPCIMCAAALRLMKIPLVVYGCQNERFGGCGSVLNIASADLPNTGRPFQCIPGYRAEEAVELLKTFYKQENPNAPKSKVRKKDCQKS

[2] = target: T2, mouse ADAT3 A180L, His-tagged (mouse) (UniProt Q6PAT0); assay: as above
T2 sequence: T1 sequence with V180L

[3] = target: T3, mouse ADAT3 V128M, His-tagged (mouse) (UniProt Q6PAT0); assay: as above
T3 sequence: T1 sequence with V128M, V180A

[4] = target: T4, mouse ADAT3 wild type, His-tagged (mouse) (UniProt Q6PAT0); assay: as above
T4 sequence: T1 sequence with V180A

[5] = target: T1, mouse ADAT3 A180V, His-tagged (mouse); assay: crystal structure; crystal structure of the mouse ADAT2/ADAT3-A180V complex at 2.9 Å; both purified

Measured: binding

mouse ADAT2 (wild type, untagged) (from UniProt Q6P6J0 1-191) (enzyme)
binds: all assays above
